Measured values published in patent publication US20120039865A1, “IDENTIFICATION OF SORTILIN AS A NEURONAL RECEPTOR FOR THE FRONTOTEMPORAL DEMENTIA PROTEIN, PROGRANULIN” (Yale University, priority 2008, published 2012).
No constants are given. Whether binding was seen depends on the method and setting. For part of these data: Binding seen in cells or lysates may run through a third protein. Some results given as binding are weak or reduced against the parent protein; the word gives no strength.

Sequences of proteins named here, by UniProt entry; tags and fusion partners are left off. A change or cut given only in a name is not applied to a line headed by its entry.
UniProt Q6PHU5: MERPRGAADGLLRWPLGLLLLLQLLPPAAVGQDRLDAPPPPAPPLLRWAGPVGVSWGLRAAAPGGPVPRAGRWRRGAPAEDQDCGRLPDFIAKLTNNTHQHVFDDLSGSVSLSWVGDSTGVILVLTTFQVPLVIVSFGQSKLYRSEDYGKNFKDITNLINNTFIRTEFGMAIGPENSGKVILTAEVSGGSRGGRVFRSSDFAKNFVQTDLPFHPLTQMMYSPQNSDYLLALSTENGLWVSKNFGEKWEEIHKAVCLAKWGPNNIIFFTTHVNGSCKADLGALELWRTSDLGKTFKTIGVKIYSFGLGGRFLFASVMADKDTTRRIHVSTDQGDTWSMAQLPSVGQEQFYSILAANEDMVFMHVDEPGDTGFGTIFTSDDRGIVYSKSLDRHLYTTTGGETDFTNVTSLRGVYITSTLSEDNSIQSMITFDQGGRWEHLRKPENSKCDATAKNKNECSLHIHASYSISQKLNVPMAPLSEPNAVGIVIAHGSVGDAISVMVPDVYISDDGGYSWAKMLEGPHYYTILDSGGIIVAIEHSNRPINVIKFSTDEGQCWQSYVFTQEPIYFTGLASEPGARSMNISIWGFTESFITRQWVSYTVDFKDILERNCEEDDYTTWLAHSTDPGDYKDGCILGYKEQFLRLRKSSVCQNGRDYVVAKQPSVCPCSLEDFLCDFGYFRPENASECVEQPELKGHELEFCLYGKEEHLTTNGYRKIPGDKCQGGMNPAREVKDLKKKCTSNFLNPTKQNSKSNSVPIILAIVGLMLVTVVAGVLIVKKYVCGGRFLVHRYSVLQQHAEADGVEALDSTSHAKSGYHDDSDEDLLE
UniProt P28799: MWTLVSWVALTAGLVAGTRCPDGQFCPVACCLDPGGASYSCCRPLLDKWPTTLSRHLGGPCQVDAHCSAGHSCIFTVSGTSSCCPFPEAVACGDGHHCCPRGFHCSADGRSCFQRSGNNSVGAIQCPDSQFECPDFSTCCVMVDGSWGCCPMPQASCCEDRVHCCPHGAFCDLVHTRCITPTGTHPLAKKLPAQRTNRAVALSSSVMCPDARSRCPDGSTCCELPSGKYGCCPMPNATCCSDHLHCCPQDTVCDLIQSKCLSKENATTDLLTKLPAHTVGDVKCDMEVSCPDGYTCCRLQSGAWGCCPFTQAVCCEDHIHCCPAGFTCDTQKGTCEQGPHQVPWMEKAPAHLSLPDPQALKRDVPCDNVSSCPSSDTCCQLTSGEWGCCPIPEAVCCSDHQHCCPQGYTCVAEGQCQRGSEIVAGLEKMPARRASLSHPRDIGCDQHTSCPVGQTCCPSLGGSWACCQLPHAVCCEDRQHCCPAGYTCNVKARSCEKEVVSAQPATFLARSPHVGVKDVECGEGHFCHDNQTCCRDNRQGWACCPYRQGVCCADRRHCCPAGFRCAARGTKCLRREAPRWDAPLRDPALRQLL

Key:
[1] = molecular target: endogenous mouse sortilin (Sort1) of mouse brain lysate, mouse cortical neurons and mice in vivo (mouse) (UniProt Q6PHU5); assay: displacement of 5 nM AP-PGRN from mouse E17 cortical neurons by 100 nM unlabeled PGRN, AP staining
[2] = molecular target: mouse sortilin-1 (Sort1; GenBank Accession No. NM 019972) expressed in COS-7 cells (mouse) (UniProt Q6PHU5); assay: displacement of 5 nM AP-PGRN from Sort1-transfected COS-7 cells by 100 nM untagged PGRN
[3] = molecular target: endogenous mouse sortilin (Sort1) of mouse brain lysate, mouse cortical neurons and mice in vivo (mouse) (UniProt Q6PHU5); assay: GST pull-down from mouse brain lysate, anti-sortilin immunoblot

| Substance | binding [1] | binding [2] | binding [3] |
| --- | --- | --- | --- |
| unlabeled PGRN (from UniProt P28799 18-593) (ligand) | binds | binds | – |
| glutathione S-transferase (GST) fused to the C-terminal segment of PGRN (amino acids 495 to the end) (from UniProt P28799 495-593) | – | – | binds |
